The values below come from ChEMBL document CHEMBL3044741, “Synthesis of novel biologically active methylene derivatives of sydnones” (Med Chem Res, 2013).

In one test the test system is Aspergillus niger. As to the kind of experiment: Antifungal activity against Aspergillus niger MTCC 282 at 250 ug/ml after 74 hrs by Kirby-Bauer method. It counts as functional.
For the next test, the system named is Candida albicans. Kind of test: Antifungal activity against Candida albicans MTCC 227 at 250 ug/ml after 74 hrs by Kirby-Bauer method. It counts as functional.

As for NYSTATIN, the inhibition zone (IZ) in the test with Aspergillus niger is 29 mm; with Candida albicans it was 22 mm.
